{"sequences": {"note": "Amino acid sequences for entries named in this document (tags omitted).", "UniProt Q9JIF0": "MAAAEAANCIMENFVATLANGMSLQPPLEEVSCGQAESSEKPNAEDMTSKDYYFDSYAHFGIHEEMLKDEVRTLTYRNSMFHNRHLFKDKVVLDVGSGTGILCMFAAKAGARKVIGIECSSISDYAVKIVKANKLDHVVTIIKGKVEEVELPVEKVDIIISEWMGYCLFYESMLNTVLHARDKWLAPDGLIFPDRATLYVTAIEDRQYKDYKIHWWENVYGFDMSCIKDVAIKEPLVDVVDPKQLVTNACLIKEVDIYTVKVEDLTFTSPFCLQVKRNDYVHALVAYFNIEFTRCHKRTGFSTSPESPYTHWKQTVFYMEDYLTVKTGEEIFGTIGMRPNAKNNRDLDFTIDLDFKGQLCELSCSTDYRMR"}, "source": "paper PMC4712026", "biological_target": "T1, GST-GAS7 WW domain (UniProt O60861)", "T1 sequence": "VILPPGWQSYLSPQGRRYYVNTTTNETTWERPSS", "assay": "pull-down; in vitro GST pull-down with GST-GAS7 WW domain as bait (Figure 1B)", "note": "These are yes or no findings as the source states them, for the method shown. In cells and extracts the contact can be indirect. Some binding calls cover weakened binding; strength is not graded here. Tags and fused reporters may be left off the sequences shown."}
{"substance": "Prmt1 (input of the GST pull-down) (from UniProt Q9JIF0 1-371) (enzyme)", "values": [{"measurement": "binding", "value": "binds"}]}
